Measurements taken from article PMC2391170.
These are yes or no findings as the source states them, for the method shown. For some of these results: Binding seen in cells or lysates may run through a third protein. Some entries that bind do so weakly or less than the wild type.

T1: PCFS5 (in vitro pull-down) (Arabidopsis) (UniProt Q9FIX8)
T1 sequence: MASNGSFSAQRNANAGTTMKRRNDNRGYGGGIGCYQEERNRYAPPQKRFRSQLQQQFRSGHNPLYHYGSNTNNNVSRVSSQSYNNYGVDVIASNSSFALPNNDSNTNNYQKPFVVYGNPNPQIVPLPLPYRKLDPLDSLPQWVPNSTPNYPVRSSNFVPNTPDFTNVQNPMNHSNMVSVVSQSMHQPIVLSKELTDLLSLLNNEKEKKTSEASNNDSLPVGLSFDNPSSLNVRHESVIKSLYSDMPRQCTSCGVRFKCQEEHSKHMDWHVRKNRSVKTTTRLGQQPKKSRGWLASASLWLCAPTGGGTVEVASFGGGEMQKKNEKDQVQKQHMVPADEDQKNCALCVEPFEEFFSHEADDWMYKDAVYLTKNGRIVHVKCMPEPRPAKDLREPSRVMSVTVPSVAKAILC

T2: PCFS1 (in vitro pull-down) (Arabidopsis) (UniProt Q9C710)
T2 sequence: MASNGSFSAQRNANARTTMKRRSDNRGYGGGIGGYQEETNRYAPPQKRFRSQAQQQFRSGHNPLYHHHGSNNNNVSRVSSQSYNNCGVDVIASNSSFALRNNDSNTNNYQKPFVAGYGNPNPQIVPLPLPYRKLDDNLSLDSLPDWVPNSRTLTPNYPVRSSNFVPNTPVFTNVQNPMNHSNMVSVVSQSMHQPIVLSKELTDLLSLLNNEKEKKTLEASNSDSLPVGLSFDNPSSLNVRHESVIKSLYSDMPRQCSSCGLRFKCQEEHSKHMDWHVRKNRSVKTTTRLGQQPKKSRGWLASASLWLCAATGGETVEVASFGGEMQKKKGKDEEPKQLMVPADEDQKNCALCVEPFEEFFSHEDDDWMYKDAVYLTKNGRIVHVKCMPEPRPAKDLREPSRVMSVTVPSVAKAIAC

T3: AtPAPS4 (Arabidopsis) (UniProt Q8VYW1)
T3 sequence: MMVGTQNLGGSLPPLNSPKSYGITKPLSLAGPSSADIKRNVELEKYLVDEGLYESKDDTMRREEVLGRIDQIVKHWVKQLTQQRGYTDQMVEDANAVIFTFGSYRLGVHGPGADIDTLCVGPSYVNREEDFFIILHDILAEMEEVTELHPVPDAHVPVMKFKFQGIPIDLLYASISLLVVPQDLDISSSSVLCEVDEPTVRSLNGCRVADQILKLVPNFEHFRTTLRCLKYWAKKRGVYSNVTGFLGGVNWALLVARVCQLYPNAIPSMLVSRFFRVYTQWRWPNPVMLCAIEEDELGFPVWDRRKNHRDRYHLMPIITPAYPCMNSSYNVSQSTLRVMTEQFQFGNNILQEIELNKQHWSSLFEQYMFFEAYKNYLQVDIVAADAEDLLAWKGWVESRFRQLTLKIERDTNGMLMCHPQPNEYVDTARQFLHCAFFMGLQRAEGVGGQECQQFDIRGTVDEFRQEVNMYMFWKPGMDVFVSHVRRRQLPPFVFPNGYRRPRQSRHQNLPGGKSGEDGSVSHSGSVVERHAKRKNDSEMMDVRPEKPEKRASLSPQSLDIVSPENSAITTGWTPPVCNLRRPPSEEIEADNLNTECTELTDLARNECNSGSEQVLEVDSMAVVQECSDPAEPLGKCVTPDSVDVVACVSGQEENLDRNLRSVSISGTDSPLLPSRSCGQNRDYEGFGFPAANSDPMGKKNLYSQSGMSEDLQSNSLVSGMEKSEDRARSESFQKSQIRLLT

T4: AtPABN2 (Arabidopsis) (UniProt Q93VI4)
T4 sequence: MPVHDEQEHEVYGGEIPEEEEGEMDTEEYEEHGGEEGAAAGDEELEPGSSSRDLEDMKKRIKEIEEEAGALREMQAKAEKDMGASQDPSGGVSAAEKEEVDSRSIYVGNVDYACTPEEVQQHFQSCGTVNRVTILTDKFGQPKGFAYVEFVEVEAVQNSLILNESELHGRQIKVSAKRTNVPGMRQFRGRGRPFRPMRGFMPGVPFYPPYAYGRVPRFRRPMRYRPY


Experiments:
[1] = molecular target: T1, PCFS5 (in vitro pull-down) (Arabidopsis); assay: pull-down; in vitro pull-down; unpublished data of D. Xing and QQ. Li (manuscript in prep)
[2] = molecular target: T2, PCFS1 (in vitro pull-down) (Arabidopsis); assay: as above
AtPAPS4 (Arabidopsis) = molecular target: T3, AtPAPS4 (Arabidopsis); assay: two-hybrid; AD (pGAD-C(1)) and BD (pGBD-C(1)) fusions in yeast PJ69-4; dual transformants tested on media lacking leucine, tryptophan and adenine; positive if all tested colonies (4 to 10) grew; both combinations of clones tested whenever possible
AtPABN2 (Arabidopsis) = molecular target: T4, AtPABN2 (Arabidopsis); assay: as above

Row | binding [1] | binding [2] | binding (AtPAPS4 (Arabidopsis)) | binding (AtPABN2 (Arabidopsis)) | Binder
1 | binds | binds | – | – | CLPS3 (in vitro pull-down) (protein, UniProt Q9SR06 1-444) MAYGGPSMNPPALSGAVPGSANLKQVKLERESELRIEVSEEPLRLRVVNGTAEIFGSELPPEIWRTFPPRMKFAVFTWYGATIEMDGVTETDYTADETPMVSYINVHAILDARRRFAKASTSNDPESSQGPRVIVVGPTDSGKSTLTKMLLSWAAKQGWRPTFVDLDVGQGSITIPGSIAAAPIEMPLDPVEGFPLDMALVYYYGHASPNMNVELYKALVKELAQVLEKQFVGNPESRAAGMVINTMGWIEGIGYELLLHAIDTFNASVVLVLGQEKLFSRLKDVLRSKSNVDVVKLHKSGGVVARVKEVRKRSRNFKIQEYFYGLSKELSPYANTSSFSDLQVFRIGGGPQAPKSALPAGSTSVSNPLRVTPVNIDDRDLLHSVLAVSYAEEPDQIISSNVSGFVYVTEVNVQKKKITYLAPSPGTLPSKLLVAGSLAWLESV
2 | – | – | binds | binds | AtFIPS5 (protein, UniProt F4KDH9 1-1196) MEEDDEFGDLYSDVLQPFQPPVVLPPPPPLPHRSIDLNLRSQDQDVSEPNSAPISRVSDNDAVKLSTQDATRQAIVDGGGDDKDMSFDIEEPDADSTPTIPGLFVTGALPGLATDRGVSQVTTRIEQQVGGGGDGGYGGQGEGDDWDSDSEDDLQIVLNDSSRNVMIGGADRRSRMGDNEDDDDEDDEDPLVIVADTDPNQPMEEQMWGEDGLQGIEGDGKDGGEAGKGSGPGGATGPPKAGYSSHGYHPFHSQFKYVRPGAAPIPGGAASVGGPSSGQVRPPANLGPMAGRGRGDWRPLGMRNASAAQKGFHQPWGSNTAGRGLDFTLPSHKTIFEVDIDSFEEKPWRYPGVEMTDYFNFGLNEESWKDYCKQLDQHRIQTTMQSRIRVYESGRTDQGYDPDLPPELAAATGAQGVPVDSSNLVKPDSVQGDSAKVPANVRPTLPPGRPIPVETGSGERLPSIDTRAPRMRDLDAIIEIVCQDSHEDEPSGENGTDQADSSLPGENVPVETSYVNNKRPDTESAEHSPAQDEPHKNLLKKQDDEISRSTDSGQSFRSSSPVGDRGTRSSSVDREDVGGEAGKDAEMGEELKMSFTSPQSAVQEDDGGESKTERSSESSKARSGSHRDFQQEEDVIQDKHSSRPANNRKQYDNNAPHQSRKNQDRGKEMERTRAASKGGRENSNPHMELDSTYIYSIASREDFDKRKERDVDGAVWRRKEDDPYSRRGGDEGSRKRDREDDPGFRQRGKMRENEIRSKDDQVPSRKHMDDAGMRNIYEPDDHINKRRKDEEYLRRSRPEKNEISYGQRESMSRVKRERDDRLEHQKRDVQHKIRDDFDDHGSLRQRDDIYMQRDGNERLRERDVLDKLKLPHEDGISARGRERQVAVRGHRGSEDRSSRMKDEYKASDKEHVTKDTLRHAKQTKRRDYPGEESSSHHRGHEDFSARTDNIVNNEKKPRQERTGAKIDKFIDTLDGQRLQDRKHKDSRRKIKEQREGTESLSKQGEQNGSSVVTGSKGTNDARNCRSEIPHQPNTAKRHKENASSGDEIHDSKRGRTKLERWASHKEREDAVSAKSSSISSKLEEKENNTNGRLSEPVHGSIGKSRDVTEEKIGHDLADTKDGSEKGPGDRHLDTVEKLKKRSERFKLPMPTEKDTTGVKKMESETLPSAKIEGPVDSEGEYVWDERSCVRIGREYA
